Data: PubChem BioAssay AID488837 (National Center for Advancing Translational Sciences (NCATS), 2010)
Hit rate of the full screen: of about 330,000 compounds, about 20 (0.006%) were called active. Inconclusive results, whose numbers are uncertain, are shown with a selection of clear calls. Calls follow the shape of the dose curve; as a rule, active = well fitted inhibition curve with a large enough effect; inconclusive = small, poorly fitted or top-dose-only effect, or effect the other way; inactive = flat fitted curve, though single readings scatter. Where the call is inconclusive, the potency comes from a doubtful curve fit.

Amino acid sequences for entries named in this document (tags omitted). A change or cut given only in a name is not applied to a line headed by its entry.
UniProt O00167: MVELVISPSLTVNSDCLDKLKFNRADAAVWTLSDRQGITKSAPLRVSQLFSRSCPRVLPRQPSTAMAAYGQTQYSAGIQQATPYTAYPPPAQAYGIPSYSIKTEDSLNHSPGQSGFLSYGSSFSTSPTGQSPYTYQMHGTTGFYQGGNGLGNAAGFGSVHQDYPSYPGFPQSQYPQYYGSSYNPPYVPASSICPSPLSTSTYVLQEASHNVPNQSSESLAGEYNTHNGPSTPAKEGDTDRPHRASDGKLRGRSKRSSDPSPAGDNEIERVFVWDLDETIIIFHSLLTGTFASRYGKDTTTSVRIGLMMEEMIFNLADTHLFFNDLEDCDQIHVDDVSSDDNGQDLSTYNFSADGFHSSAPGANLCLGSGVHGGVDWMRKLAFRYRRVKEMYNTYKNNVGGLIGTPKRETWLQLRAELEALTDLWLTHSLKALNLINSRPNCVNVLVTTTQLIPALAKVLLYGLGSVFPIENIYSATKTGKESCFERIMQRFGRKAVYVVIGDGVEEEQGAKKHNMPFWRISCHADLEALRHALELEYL

Each compound was assayed against Protein phosphatase EYA2 (Homo sapiens) (UniProt O00167) (assay: qHTS Assay for Inhibitors of the Phosphatase Activity of Eya2). Conditions: recombinant Eya2, OMFP fluorescence dephosphorylation (OMFP is methylfluorescein phosphate); activity, negative = inhibition: at 76.9 µM (top of the series) unless noted.
Procedure, shortened: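 Eya2 (0.2 uM) preincubated 10 min at ambient with compound, then OMFP substrate added at 50 uM; 10 min reaction in 50 mM HEPES pH 7.5, 50 mM NaCl, 5 uM MgCl2, 0.05% BSA, 1 mM DTT. Fluorescence read at Ex 485/Em 525 nm.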
% is scaled to controls: 0 for no effect and ±100 for the full control effect; potency is read from the fitted curve at half-maximal effect.

Row | Structure (SMILES) | activity, negative = inhibition | Potency
1 | C=CCNC(=O)C1=NN(c2c(F)c(F)cc(F)c2F)C(=O)CC1 | inactive: 14.7% | 
2 | COc1ccc(CCNCC(C)c2ccccc2)cc1 (stereo unspecified) |  | inconclusive: 89.1 µM [inhibitor, partial curve]
3 | Cc1c(Cl)cccc1Nc1ncccc1C(=O)OCC(O)CO (stereo unspecified) |  | inconclusive: 631 µM [inhibitor, partial curve]
4 | COc1ccc2c(c1)c(C(=O)CN1CCN(Cc3ccccc3)CC1)c(C)n2C |  | inconclusive: 100 µM [inhibitor, single point]
5 | FC(F)(F)c1cccc(NC(=S)NNC(=S)Nc2cccc(C(F)(F)F)c2)c1 | inactive: -12.7% | 
6 | Cc1cccc(C)c1NC(=O)c1cc(S(=O)(=O)N2CCOCC2)cn1C |  | inconclusive: 20 µM [inhibitor, single point]
7 | CC(=O)N1CCC2(CC1)C/C(=N\NC(=S)Nc1ccc(C)cc1)c1cc(O)ccc1O2 |  | inconclusive: 126 µM [activator, partial curve]
8 | CC(C)[C@H](NC(=O)c1ccccc1Cl)C(=O)Nc1nc(-c2ccccn2)cs1 | inactive: -11.6% | 
9 | CN1Cc2sc(NC(=S)NC(=O)c3ccccc3)c(C#N)c2CC1(C)C |  | inconclusive: 100 µM [inhibitor, single point]
10 | Cc1ccc(Nc2ccccc2)nn1 |  | inconclusive: 100 µM [inhibitor, single point]
11 | O=C1CS/C(=N/N=C/c2ccccc2)N1Cc1ccco1 |  | inconclusive: 31.6 µM [inhibitor, partial curve, poor fit]
12 | COc1ccc(-c2csc(CCN3N=C(C)CC3=O)n2)cc1 |  | inconclusive: 89.1 µM [inhibitor, partial curve, poor fit]
13 | CCOC(=O)N1CCN(c2nc(-c3cccc(OC)c3)cc(C(F)(F)F)n2)CC1 | inactive: 8.7% | 
14 | O=C(Cn1c(NCCO)nc2ccccc21)c1ccc(Cl)cc1Cl |  | inconclusive: 112 µM [inhibitor, single point]
15 | Cc1ccc(-c2nnn(CC(=O)N(CCN3CCOCC3)C(C(=O)NC(C)(C)C)c3ccc(C)o3)n2)cc1 (stereo unspecified) | inactive: -6.48% | 
16 | O=C(O)C1CCCCC1C(=O)Nc1ccc(S(=O)(=O)N2CCCC2)cc1 (stereo unspecified) |  | inconclusive: 25.1 µM [inhibitor, single point]
17 | NCCCNCCSP(=O)(O)O | inactive: -3.22% | 
18 | CCN(CC)c1ccc2cc(C(=O)Nc3cccnc3N3CCOCC3)c(=O)oc2c1 | inactive: -3.17% | 
19 | CCc1ccc(-n2c(=O)c3ccc(C(=O)NCCc4ccccc4)cc3n(CC(N)=O)c2=O)cc1 |  | inconclusive: 17.8 µM [inhibitor, single point]
20 | Cn1c(=O)c(N)c2c3c(c(Br)ccc31)C(=O)c1ccccc1-2 |  | inconclusive: 6.31 µM [activator, partial curve]
21 | O=C(c1ccco1)N(Cc1nc2ccccc2c(=O)[nH]1)C1CCCC1 |  | inconclusive: 14.1 µM [inhibitor, single point]
22 | Cc1cc(C)c(N=C2C(=O)Nc3ccccc32)c(C)c1 |  | inconclusive: 89.1 µM [inhibitor, single point]
23 | CCOc1cccc(C2C(C#N)=C(N)Oc3cc(C)[nH]c(=O)c32)c1OCC (stereo unspecified) |  | inconclusive: 355 µM [inhibitor, partial curve, poor fit]
24 | CCOC(=O)C(CC)Sc1nnc(COc2ccc(C)cc2)n1-c1ccccc1 (stereo unspecified) | inactive: -15.3% | 

Row | Structure (SMILES) | activity, negative = inhibition | Potency
25 | Cc1ccccc1OCC(=O)OCC(=O)c1ccc[nH]1 | inactive: -16% | 
26 | NC(=O)NC(=O)COC(=O)CNS(=O)(=O)c1ccc(F)c(F)c1F |  | inconclusive: 100 µM [inhibitor, single point]
27 | O=C(Nc1ccccc1)OCCOc1ccccc1Br |  | inconclusive: 100 µM [inhibitor, single point]
28 | CC1CCC(NC(=O)C2CCN(c3nc4ccccc4s3)CC2)CC1 (stereo unspecified) | inactive: -12.9% | 
29 | O=C(N/N=C/c1cc(O)ccc1Br)c1cccnc1 | inactive: -6.4% | 
30 | O=C(CCCC(=O)N(CC(=O)NC1CCCCC1)c1ccccc1F)Nc1ccccn1 |  | inconclusive: 11.2 µM [inhibitor, partial curve, poor fit]
31 | C[C@@H]1CN([C@@H](C)CO)C(=O)c2cc(NS(=O)(=O)c3ccc(Cl)cc3)ccc2O[C@H]1CN(C)Cc1ccncc1 | inactive: -11.3% | 
32 | Cc1ccc(N(CC(=O)NCCSCc2ccco2)S(=O)(=O)c2ccc(F)cc2)cc1 | inactive: -7.78% | 
33 | COc1ccc(-n2ccnc2SCC(=O)Nc2ccccc2)cc1 |  | inconclusive: 200 µM [activator, partial curve]
34 | O=C(N/N=C/c1ccccn1)c1ccncc1 | inactive: -0.168% | 
35 | Cc1ccccc1NC(=O)c1cc2c(C)nc3ccccc3c2o1 |  | inconclusive: 126 µM [activator, partial curve]
36 | COc1ccc(-c2cn3c(C)c(C(=O)NC(C)C)sc3n2)cc1 |  | inconclusive: 17.8 µM [inhibitor, single point]
37 | Cc1ccc(C)c(-n2c(CNC(=O)c3ccco3)nnc2SCC(=O)Nc2nccs2)c1 |  | inconclusive: 22.4 µM [inhibitor, single point]
38 | CN(C)CCCNC(=O)c1cc(C(=O)C2CCCCC2)c[nH]1 | inactive: 10.6% | 
39 | O=[N+]([O-])c1ccc2nc(-c3ccc(Cl)cc3)[nH]c2c1 | inactive: -11.4% | 
40 | CC1=NN(c2ccc(C(=O)O)cc2)C(=O)/C1=C\c1ccc(OC(=O)c2cccs2)cc1 |  | inconclusive: 200 µM [activator, partial curve, poor fit]
41 | COc1ccc(NC(=S)N2CCN(Cc3ccc(C)cc3)CC2)cc1 |  | inconclusive: 89.1 µM [inhibitor, single point]
42 | COc1ccc(C(=O)/C=C/c2ccc(N(C)C)cc2)c(OC)c1 |  | inconclusive: 39.8 µM [activator, partial curve]
43 | CC(C)CC1NC(=O)N(CC(=O)N2CCN(S(=O)(=O)c3ccccc3)CC2)C1=O (stereo unspecified) |  | inconclusive: 25.1 µM [inhibitor, partial curve, poor fit]
44 | CCCCNC(=O)c1cc2ccccc2s1 |  | inconclusive: 22400 µM [inhibitor, single point]
45 | Cc1ccc(NC(=O)CCOc2ccccc2)c(C)c1 |  | inconclusive: 79.4 µM [inhibitor, single point]
46 | C=CCSc1nc2c(c(=O)[nH]1)C(c1ccccc1)C(C#N)=C(N)O2 (stereo unspecified) |  | inconclusive: 100 µM [inhibitor, single point]
47 | CS(=O)(=O)c1ccc(Cl)c(NC(=O)COC(=O)/C=C/c2cnc3ccccc3n2)c1 |  | inconclusive: 70.8 µM [inhibitor, single point]
48 | CC(O)CNCCOc1cccc(Oc2ccccc2)c1 (stereo unspecified) |  | inconclusive: 100 µM [inhibitor, single point]

Row | Structure (SMILES) | activity, negative = inhibition | Potency
49 | CCC(C)C(NC(=O)C1CCC(C)CC1)C(=O)NCc1ccco1 (stereo unspecified) | inactive: 15% | 
50 | COc1ccc(C(=O)N2CCC(C(=O)c3c(C)cc(C)cc3C)CC2)cc1 |  | inconclusive: 100 µM [inhibitor, single point]
51 | CC(OC(=O)Cc1n[nH]c(=O)c2ccccc12)C(=O)Nc1ccc(F)cc1Cl (stereo unspecified) | inactive: -15.4% | 
52 | Cc1ccc(C(C)(C)C)cc1S(=O)(=O)NC(=O)c1ccccc1 |  | inconclusive: 112 µM [inhibitor, single point]
53 | CN(CC(=O)O/N=C(\N)c1ccc([N+](=O)[O-])cc1)S(=O)(=O)c1ccc2ccccc2c1 |  | inconclusive: 7.94 µM [inhibitor, single point]
54 | CC(C)(C)C(=O)C[n+]1ccccc1 |  | inconclusive: 89.1 µM [inhibitor, single point]
55 | COCCNC(=O)c1ccc(C)c(NC(=O)C2=C(C)OCCS2)c1 |  | inconclusive: 100 µM [inhibitor, single point]
56 | c1ccc(Sc2ncnc3ccccc23)cc1 |  | inconclusive: 89.1 µM [inhibitor, single point]
57 | Cc1cc(N/N=C/c2cccc([N+](=O)[O-])c2)nc(-n2nc(C)cc2C)n1 |  | inconclusive: 126 µM [inhibitor, partial curve, poor fit]
58 | COC(=O)N/N=C/c1cc(N=Nc2ccccc2)ccc1O | inactive: 12.2% | 
59 | CCOC(=O)/C(C#N)=C/c1cccc([N+](=O)[O-])c1 |  | inconclusive: 89.1 µM [inhibitor, single point]
60 | O=C1C=CC(=O)N1c1ccc(O)cc1 | inconclusive: -32.9% [inhibitor] | 
61 | COC(=O)CCCNc1ncccc1[N+](=O)[O-] |  | inconclusive: 562 µM [inhibitor, partial curve, poor fit]
62 | O=C(CCC1CCCN(C(=O)CCN2CCCCC2=O)C1)NCc1ccccc1F (stereo unspecified) |  | inconclusive: 22.4 µM [inhibitor, single point]
63 | COC(=O)c1cccc(NC(=O)C(C)(C)C)c1 |  | inconclusive: 141 µM [inhibitor, partial curve, poor fit]
64 | CC(NC1CCN(Cc2ccccc2)CC1)c1ccc(F)cc1 (stereo unspecified) | inactive: -22.3% | 
65 | CC(=O)Nc1sc(C)c(C)c1C(=O)OCC(=O)NCc1ccc(Cl)cc1 |  | inconclusive: 100 µM [inhibitor, single point]
66 | O=C(CCN1CCC(c2ccccc2)C1)c1ccc2c(c1)OCCO2 (stereo unspecified) | inactive: -4.36% | 
67 | COCc1c(Br)c(C)nc2sc3c(=O)[nH]nnc3c12 |  | inconclusive: 100 µM [inhibitor, single point]
68 | Cc1ccc2c(c1)C(=O)C(=O)N2CCOc1ccccc1 | inactive: 1.84% | 
69 | CC(C)[C@H](NC(=O)c1ccccc1)C(=O)OCC(=O)Nc1sccc1C(N)=O |  | inconclusive: 89.1 µM [inhibitor, single point]
70 | Cc1ccccc1-c1nc2cc(Cl)ccc2c(=O)o1 |  | inconclusive: 100 µM [inhibitor, single point]
71 | Cc1cc(Br)ccc1NC(=O)CN(C)C(=O)CSC(=S)N1CCCC1 | inactive: 11.4% | 

A few values from the list.
Potency with `Cc1ccc(C(C)(C)C)cc1S(=O)(=O)NC(=O)c1ccccc1` is entered as inconclusive: 112 µM [inhibitor, single point]
activity, negative = inhibition with `Cc1ccc2c(c1)C(=O)C(=O)N2CCOc1ccccc1` is entered as inactive: 1.84%
activity, negative = inhibition with `COC(=O)N/N=C/c1cc(N=Nc2ccccc2)ccc1O` is entered as inactive: 12.2%
Potency with `O=C(CCC1CCCN(C(=O)CCN2CCCCC2=O)C1)NCc1ccccc1F` (stereo unspecified) is entered as inconclusive: 22.4 µM [inhibitor, single point]
Potency with `CC(C)(C)C(=O)C[n+]1ccccc1` is entered as inconclusive: 89.1 µM [inhibitor, single point]
